# Counter-ions that a name gives are not always drawn. Some of the results follow. Plates or batches differ in their baseline, so values are only roughly comparable.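 A clonal Drosophila S2 line expresses Smoothened bearing circularly permuted GFP in its cytoplasmic tail; Hh-driven phosphorylation opens an inhibitory loop, making it fluoresce. Flow cytometry measured per-cell fluorescence, normalized to Hh-stimulated untreated cells. Hits were inhibitor groups with shared pathway targets that consistently shifted fluorescence, not individual compounds.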
# Test system: Drosophila S2 cl14 SmoIP sensor cells
# Assay: normalized SmoIP GFP fluorescence (untreated unstimulated = 0%, untreated Hh-stimulated = 100%); higher = more Smo activation sensor fluorescence
# Conditions: compound concentration: 15 uM, 24 h
# [1] = stimulation: Hh conditioned medium (+Hh)
# [2] = stimulation: mock conditioned medium (-Hh)
SMILES,normalized SmoIP GFP fluorescence [1] [%],normalized SmoIP GFP fluorescence [2] [%]
COc1ccc2[nH]c([S+]([O-])Cc3ncc(C)c(OC)c3C)nc2c1 (stereo unspecified) [Omeprazole],134,0.812
O=c1sn(-c2cccc3ccccc23)c(=O)n1Cc1ccccc1 [tideglusib],121,31.2
COc1ccc(C(=O)Nc2sc3c(c2C(N)=O)CCCC3)cc1OC,142,-9.04
O=C(N/N=C/c1ccc(O)c(O)c1)c1cc2ccccc2cc1O [dynasore],138,64
O=C(Nc1ccccc1)Nc1ccc(-c2ccc(C(=O)[C@@H]3CCC[C@H]3C(=O)O)cc2)cc1,134,-4.35
Cc1nc(Nc2ncc(C(=O)Nc3c(C)cccc3Cl)s2)cc(N2CCN(CCO)CC2)n1 [Dasatinib],194,60.9
O=C1CCc2cc(OCCCCc3nnnn3C3CCCCC3)ccc2N1 [Cilostazol],185,26.9
CNC(=O)CN1CCC(Oc2cc3c(Nc4cccc(Cl)c4F)ncnc3cc2OC)CC1,180,43.6
NC(=O)c1cccc(-c2cccc(OC(=O)NC3CCCCC3)c2)c1,141,7.01
Nc1c(Br)cc(Br)cc1CN[C@H]1CC[C@H](O)CC1 [ambroxol-hcl],126,8.14
CCOC(=O)[C@H](CCc1ccccc1)N[C@H]1CCc2ccccc2N(CC(=O)O)C1=O [Benazepril-hydrochloride],110,-1.56
CC(=O)Nc1ccc(C(=O)Nc2ccccc2N)cc1 [ci994-tacedinaline],237,9.39
CN[C@H]1CC[C@@H](c2ccc(Cl)c(Cl)c2)c2ccccc21 [sertraline-hcl],154,37.7
O=c1cc(-c2ccc(O)cc2)oc2cc(O)cc(O)c12 [Apigenin],122,-13.2
CC(C)C[C@H](NC(=O)[C@H](Cc1ccccc1)NC(=O)c1cnccn1)B(O)O [Bortezomib],88.5,71.8
C[C@@H](NCCc1ccc(O)cc1)[C@@H](O)c1ccc(O)cc1 [Ritodrine-hydrochloride-Yutopar],158,-16.4
COc1cc2c(cc1OC)CN(CCc1ccc(NC(=O)c3cc(OC)c(OC)cc3NC(=O)c3cnc4ccccc4c3)cc1)CC2 [tariquidar],152,34
Cc1nnc(C(C)C)n1C1C[C@H]2CC[C@@H](C1)N2CC[C@H](NC(=O)C1CCC(F)(F)CC1)c1ccccc1 (stereo in doubt) [Maraviroc],134,-7.42
CCc1cccc2c3c([nH]c12)C(CC)(CC(=O)O)OCC3 (stereo unspecified) [Etodolac],131,0.274
NC(N)=N/N=C/c1c(Cl)cccc1Cl [guanabenz-wy-8678-acetate],113,0.247
O=C1[C@H](Cc2ccc(O)cc2)N2C(=O)CCN(C(=O)NCc3ccccc3)[C@H]2CN1Cc1cccc2ccccc12,199,32.9
CCCOc1ccc(C(=O)OCCN(CC)CC)cc1N [proparacaine-hcl],114,1.44
Cn1c(=O)c2[nH]cnc2n(C)c1=O [Aminophylline(Truphylline)],141,-5.22
CNCC[C@@H](Oc1ccccc1C)c1ccccc1 [atomoxetine-hydrochloride],139,15.9
CCOC(=O)CCNc1cc(N2CCc3ccccc3CC2)nc(-c2ccccn2)n1,76.1,88.2
CC(C)(F)C[C@H](N[C@@H](c1ccc(-c2ccc(S(C)(=O)=O)cc2)cc1)C(F)(F)F)C(=O)NC1(C#N)CC1 [Odanacatib-(MK0822)],151,18.3
COC(=O)[C@]12CCC(C)(C)C[C@H]1[C@H]1C(=O)C=C3[C@@]4(C)C=C(C#N)C(=O)C(C)(C)[C@@H]4CC[C@@]3(C)[C@]1(C)CC2 [bardoxolone-methyl],115,-2.08

# An excerpt from above in order of length of the SMILES, largest number first.
SMILES,normalized SmoIP GFP fluorescence [1] [%],normalized SmoIP GFP fluorescence [2] [%]
O=C1[C@H](Cc2ccc(O)cc2)N2C(=O)CCN(C(=O)NCc3ccccc3)[C@H]2CN1Cc1cccc2ccccc12,199,32.9
O=C(Nc1ccccc1)Nc1ccc(-c2ccc(C(=O)[C@@H]3CCC[C@H]3C(=O)O)cc2)cc1,134,-4.35
O=c1sn(-c2cccc3ccccc23)c(=O)n1Cc1ccccc1 [tideglusib],121,31.2
O=c1cc(-c2ccc(O)cc2)oc2cc(O)cc(O)c12 [Apigenin],122,-13.2

# (continued)

SMILES,normalized SmoIP GFP fluorescence [1] [%],normalized SmoIP GFP fluorescence [2] [%]
CC(C)c1cc(C(=O)N2Cc3ccc(CN4CCN(C)CC4)cc3C2)c(O)cc1O,169,72.2
Cc1cc(C)c(Nc2ccnc(Nc3ccc(C#N)cc3)n2)c(C)c1 [dapivirine],57.4,43.3
CC1C(=O)OC2C(O)C34C5CC(C(C)(C)C)C36C(OC(=O)C6O)OC4(C(=O)O5)C12O (stereo unspecified) [Ginkgolide-B],133,-1.56
CN1C(=O)C(Cc2c[nH]c3ccccc23)NC1=S (stereo unspecified) [necrostatin-1],185,41.6
COc1ccc(NS(=O)(=O)c2sc3ccc(Cl)cc3c2C)cc1N1CCNCC1,148,38.5
Cc1cc(Nc2nc(N[C@@H](C)c3ccc(F)cc3)c(C#N)cc2F)n[nH]1,104,8.81
C[C@]12CC[C@@H]3c4ccc(O)cc4C[C@@H](CCCCCCCCC[S+]([O-])CCCC(F)(F)C(F)(F)F)[C@H]3[C@@H]1CC[C@@H]2O (stereo partly specified) [Fulvestrant],179,98.3
Cc1ccc(Sc2ccccc2N2CCNCC2)c(C)c1,182,-12
Cc1ccc(-c2cc(C(F)(F)F)nn2-c2ccc(S(N)(=O)=O)cc2)cc1 [Celecoxib],172,7.06
CNC(=O)c1nn(C)c2c1C(C)(C)Cc1cnc(Nc3ccc(N4CCN(C)CC4)cc3)nc1-2,120,44.8
CN(C)Cc1cccc(N/C(=C2\C(=O)Nc3cc(C(N)=O)ccc32)c2ccccc2)c1,132,25.3
CC(C)N(CCC(=O)c1ccc2ccccc2c1)Cc1ccccc1,256,31.5
OCCn1cc(-c2cnc3nnn(Cc4ccc5ncccc5c4)c3n2)cn1,134,3.72
O=C1NC(=O)/C(=C/c2ccc3c(c2)OC(F)(F)O3)S1,164,11.9
COc1ccc2cc(CCC(C)=O)ccc2c1 [nabumetone],112,-3.79
CCOC(=O)[C@H](CCc1ccccc1)N[C@H]1CCCN2CCC[C@H](C(=O)O)N2C1=O [cilazapril-monohydrate-inhibace],121,-12
COc1cccc2cc(-c3nc([C@H]4CC[C@H](C(=O)O)CC4)n4ncnc(N)c34)[nH]c12,25.9,-24.8
CN(C)C(=O)C(CCN1CCC(O)(c2ccc(Cl)cc2)CC1)(c1ccccc1)c1ccccc1 [Loperamide-hydrochloride],177,63.1
Cc1nc(NC(=O)N2CCC[C@H]2C(N)=O)sc1-c1ccnc(C(C)(C)C(F)(F)F)c1,96.1,-6.97
CC[C@H](C)C(=O)O[C@@H]1C[C@@H](C)C=C2C=C[C@H](C)[C@@H](CC[C@@H]3C[C@@H](O)CC(=O)O3)[C@H]21 [lovastatin-mevacor],110,13
CNC[C@H](O)c1cccc(O)c1 [Phenylephrine-hydrochloride],119,-8.77
Cc1cc(OCc2nnc(SC3CCCC3)n2-c2cccnc2)ccc1-c1ccc(S(C)(=O)=O)cc1,146,42.1
Cc1cccc(C)c1OCC(=O)N[C@@H](Cc1ccccc1)[C@@H](O)C[C@H](Cc1ccccc1)NC(=O)[C@H](C(C)C)N1CCCNC1=O [Lopinavir],209,33.6
COc1cc(F)c(C(C)C)cc1-c1ccc(C(F)(F)F)cc1CN1C(=O)O[C@H](c2cc(C(F)(F)F)cc(C(F)(F)F)c2)[C@@H]1C [anacetrapib-mk-0859],148,-16.8
Nc1ncnc2c1c(-c1cnc3[nH]ccc3c1)nn2C1CCCC1,37.3,4.48
CCn1c2ccccc2c2cc(Nc3ccnc(NCCCN4CCOCC4)n3)ccc21 [ehop-016],112,-1.34

# From the supplement of paper PMC5662767
